In PubChem BioAssay AID1259354 (Paczesny and Yang Labs, IUPUI and University of Michigan, 2018):
The campaign covered roughly 78,000 compounds. About 1,800 (2.3%) were called active. This list was built around the results that the source calls inconclusive (neither active nor inactive); the mix of calls is not that of the screen. No stated cut-off is given here; in the data, active means inhibition above about 30%; inconclusive means mostly about 10% to 28%; inactive means weaker than that.

Chains of the proteins cited; added tags and fusions are not shown. Lines headed by an entry give the natural chain unless they say otherwise; changes in a name come on top.
UniProt Q01638: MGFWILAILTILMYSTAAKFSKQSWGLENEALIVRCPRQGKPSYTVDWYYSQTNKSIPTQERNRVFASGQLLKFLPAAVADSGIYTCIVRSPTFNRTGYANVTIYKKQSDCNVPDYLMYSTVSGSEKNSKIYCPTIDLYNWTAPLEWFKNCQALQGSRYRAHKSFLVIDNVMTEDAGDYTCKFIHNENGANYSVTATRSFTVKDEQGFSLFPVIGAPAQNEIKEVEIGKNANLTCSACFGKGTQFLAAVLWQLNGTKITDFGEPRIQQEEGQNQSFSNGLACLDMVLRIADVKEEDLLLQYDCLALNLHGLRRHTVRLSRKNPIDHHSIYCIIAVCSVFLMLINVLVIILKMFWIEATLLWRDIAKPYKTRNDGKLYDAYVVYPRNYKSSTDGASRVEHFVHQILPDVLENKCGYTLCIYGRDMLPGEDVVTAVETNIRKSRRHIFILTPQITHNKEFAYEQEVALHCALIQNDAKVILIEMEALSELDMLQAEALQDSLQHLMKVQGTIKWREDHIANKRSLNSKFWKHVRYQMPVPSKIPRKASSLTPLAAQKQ

target: Interleukin-1 receptor-like 1 (Homo sapiens) (UniProt Q01638); experiment: blocks human ST2 binding to IL-33, primary screen, biochemical, AlphaLISA (AID 1259354); conditions: AlphaLISA ST2-Fc/biotin-IL-33 interaction, 1 h; at 17 µM, stronger effect = higher value

Row | Structure (SMILES) | inhibition
1 | COc1ccc(CN2C[C@H](O)C[C@H]2c2nc(-c3ccc(OC(F)(F)F)cc3)no2)cc1 | active: 31%
2 | COC(=O)CC1(O)c2ccccc2C(=O)N1Cc1ccc(OC)cc1 (centres undefined) | inconclusive: 10%
3 | CCOC(=O)C(C)(C)Sc1nc2c(c(=O)n1-c1ccc(OCC)cc1)SCC2 | active: 43%
4 | COc1ccc(C2CC(c3c(Cl)cccc3Cl)n3nc(N)nc3N2)cc1 (centres undefined) | inconclusive: 12%
5 | COc1cc(C(=O)N(C)CC2CCCN(CCc3cccc(C(F)(F)F)c3)C2)ccc1C (centres undefined) | inconclusive: 18%
6 | Cc1cc(O)c(C=Nc2cccc(C(=O)O)c2)c(C)c1Cl | inactive
7 | N#Cc1cccc(NC(=O)O[C@@H]2CO[C@H]3[C@@H]2OC[C@@H]3Nc2nccc(-c3ccccc3)n2)c1 | inconclusive: 12%
8 | COc1ccc(C(=O)Oc2cc3c(C)cc(=O)oc3cc2Cl)cc1OC | inactive
9 | CCOc1ccc2nc(N3CCCN(Cc4ccc5ccccc5n4)CC3)nc(C)c2c1 | inconclusive: 15%
10 | CCOc1ccc(/C=C2\N=C(SC)SC2=O)cc1 | active: 44%
11 | Cc1cc(C)c(CN2CCC(CCC(=O)N3CCOCC3)CC2)cc1C | inconclusive: 16%
12 | COc1ccc(S(=O)(=O)N2Cc3ccccc3CC2C(=O)NC(C)(C)C#N)cc1 (centres undefined) | inactive
13 | COc1ccc(Cl)cc1C(=O)Nc1ccc(Nc2nc(C)cc(Nc3ccc(C)cc3)n2)cc1 | inconclusive: 20%
14 | COc1ccccc1-c1cc2c(n(Cc3ccccc3)c1=O)CCN(C(=O)CCc1cnccn1)C2 | inconclusive: 20%
15 | CCC(C)N(Cc1sccc1C)C(=O)CC1CCOCC1 (centres undefined) | inactive
16 | CCc1nn(-c2ccccc2)c(NC(=O)c2cccnc2OC)c1C | inactive
17 | O=C1OC(c2ccccc2Cl)=N/C1=C\c1ccc(-c2cccc([N+](=O)[O-])c2)o1 | inconclusive: 15%
18 | O=C(c1ccc(F)cc1)N1CC[C@H]2[C@H](CCCN2C(=O)c2ccc(-n3ccnc3)cc2)C1 | inconclusive: 12%
19 | COc1ccc(CNCc2cccnc2N2CCCCCCC2)cc1F | inconclusive: 19%
20 | CCCc1nc(CN(CC)C(=O)c2cc(F)c(F)cc2Cl)no1 | inactive
21 | Cc1ccc2oc(=O)n(CCC(=O)N3CCC4(CN(C)C(=O)O4)C3)c2c1 (centres undefined) | inconclusive: 22%
22 | COc1ccc(C2C(C#N)=C(N)OC3=C2C(=O)CC(c2ccccc2)C3)c(OC)c1 (centres undefined) | inconclusive: 23%
23 | CC1=C(C(=O)Nc2ccccc2)C(c2ccc(F)cc2)n2c(s/c(=C\c3ccc(C)o3)c2=O)=N1 (centres undefined) | inconclusive: 25%
24 | O=C(CCc1ccc2c(c1)OCO2)NCc1cccnc1-n1ccnc1 | inconclusive: 10%
25 | O=[N+]([O-])c1ccc2c(c1)C=C1CCCCC1(NCc1ccco1)O2 (centres undefined) | inactive
26 | CC[C@H]1CN(C(=O)C(C)(C)C)CC[C@H]1CC(=O)NCc1cccnc1 | inconclusive: 10%
27 | CCc1nc(C)c(C(=O)NCc2cc(C)cc3c(C)c(C)[nH]c23)o1 | inconclusive: 22%

Part of the list above, comma-delimited:
Row,Structure (SMILES),inhibition
5,COc1cc(C(=O)N(C)CC2CCCN(CCc3cccc(C(F)(F)F)c3)C2)ccc1C (centres undefined),inconclusive: 18%
6,Cc1cc(O)c(C=Nc2cccc(C(=O)O)c2)c(C)c1Cl,inactive
7,N#Cc1cccc(NC(=O)O[C@@H]2CO[C@H]3[C@@H]2OC[C@@H]3Nc2nccc(-c3ccccc3)n2)c1,inconclusive: 12%
8,COc1ccc(C(=O)Oc2cc3c(C)cc(=O)oc3cc2Cl)cc1OC,inactive
9,CCOc1ccc2nc(N3CCCN(Cc4ccc5ccccc5n4)CC3)nc(C)c2c1,inconclusive: 15%
10,CCOc1ccc(/C=C2\N=C(SC)SC2=O)cc1,active: 44%
11,Cc1cc(C)c(CN2CCC(CCC(=O)N3CCOCC3)CC2)cc1C,inconclusive: 16%
12,COc1ccc(S(=O)(=O)N2Cc3ccccc3CC2C(=O)NC(C)(C)C#N)cc1 (centres undefined),inactive
13,COc1ccc(Cl)cc1C(=O)Nc1ccc(Nc2nc(C)cc(Nc3ccc(C)cc3)n2)cc1,inconclusive: 20%
14,COc1ccccc1-c1cc2c(n(Cc3ccccc3)c1=O)CCN(C(=O)CCc1cnccn1)C2,inconclusive: 20%

Following part.

Row | Structure (SMILES) | inhibition
28 | Fc1ccc(-c2nn3c(-c4ccc(Br)cc4)nnc3s2)cc1 | inconclusive: 12%
29 | Cc1ccc(C(O)=C2C(=O)C(=O)N(CCCN(C)C)C2c2ccccc2F)cc1 (centres undefined) | inconclusive: 16%
30 | COc1ccc(NC(=O)N2CC[C@@H](CC(=O)O)[C@@H](CCN3CCOCC3)C2)cc1 | inconclusive: 14%
31 | CCC(=O)N1CCc2cc(Br)cc(S(=O)(=O)NCCCN3CCCCCC3)c21 | inactive
32 | NC1=NC(=O)C(CC(=O)Nc2ccc(OC(F)F)cc2)S1 (centres undefined) | inactive
33 | Cc1nn(-c2ccc(F)cc2)c(C)c1C(=O)N1CCC2(CN(C)C(=O)O2)C1 (centres undefined) | inconclusive: 26%
34 | COc1ccc(N2CCN(C(=O)c3cc4ccccn4n3)CC2)cc1 | inconclusive: 15%
35 | COc1ccc(-c2ccc(C(=O)N3CCC3c3cccc(OC)c3)o2)cc1 (centres undefined) | inconclusive: 27%
36 | CC(c1ccccc1)N1C(=O)c2cccc([N+](=O)[O-])c2C1=O (centres undefined) | inconclusive: 11%
37 | C[C@@H]1CC[C@]2(C(=O)O[C@@H]3O[C@H](CO[C@@H]4O[C@H](CO)[C@@H](O[C@@H]5O[C@@H](C)[C@H](O)[C@@H](O)[C@H]5O)[C@H](O)[C@H]4O)[C@@H](O)[C@H](O)[C@H]3O)CC[C@]3(C)C(=CCC4[C@@]5(C)C[C@@H](O)[C@H](O)[C@@](C)(CO)C5CC[C@]43C)C2[C@H]1C (some centres undefined) | inconclusive: 12%
38 | COc1ccc(S(=O)(=O)N2C[C@@H]3C[C@H](C2)c2c(NC(=O)c4ccco4)ccc(=O)n2C3)cc1 | inconclusive: 14%
39 | COC(=O)Oc1ccc2c(=O)c(Oc3ccccc3Cl)coc2c1 | inactive
40 | CCN(CC)c1ncccc1CNC(=O)C1CCN(C(=O)N(C)C)CC1 | inconclusive: 14%
41 | Cc1cccn2c(=O)c3cc(C(=O)NCC4CCCO4)c(=N)n(CCCn4ccnc4)c3nc12 (centres undefined) | inactive
42 | CN(Cc1c[nH]c2ccccc12)CC1CCN(CCc2cccc(F)c2)CC1 | inactive
43 | CC1=C(C(=O)Nc2ccc(F)c(F)c2)C(c2ccc([N+](=O)[O-])cc2)NC(=O)N1 (centres undefined) | inconclusive: 10%
44 | Cc1ccc(C2(O)CCN(C(=O)CC3NC(=O)c4ccccc43)CC2)nc1 (centres undefined) | inactive
45 | COc1ccc(C2C(=C(O)c3ccc(F)cc3)C(=O)C(=O)N2CCN2CCOCC2)c(OC)c1 (centres undefined) | inconclusive: 14%
46 | CN(C)C1(CNC(=O)c2ccc(C#CC(C)(C)O)o2)CCSC1 (centres undefined) | inactive
47 | CCCn1nccc1C(=O)N1CCCC(c2n[nH]c(=O)n2CC)C1 (centres undefined) | inconclusive: 23%
48 | COc1cc(-c2ccc(O)c(O)c2)cc(=O)c2c(C)oc(C)c12 | inconclusive: 25%
49 | COc1cc(C2SCC(=O)N2Cc2ccccc2)ccc1O (centres undefined) | inconclusive: 12%
50 | CCOC(=O)CNc1ccccc1C(=O)N1CCCC1c1c(C)noc1C (centres undefined) | inconclusive: 15%
51 | CC(=O)Nc1ncc(CN2CCC(c3ccccc3)CC2)s1 | inactive
52 | CC1CCCN(Cc2cccc([N+](=O)[O-])c2)C1 (centres undefined) | inactive
53 | CC(C)c1ccc(NC(=O)N[C@H]2CO[C@H]3[C@@H]2OC[C@H]3OC(=O)Nc2ccc(Oc3ccccc3)cc2)cc1 | inconclusive: 11%
54 | CCOc1ccc2c(c1)C(C)=CC(C)(C)N2C(=O)CN1C(=O)c2ccccc2C1=O | inconclusive: 15%
